Results reported in PMC3858272, “Construction and Application of Elastin Like Polypeptide Containing IL-4 Receptor Targeting Peptide” (PLoS ONE, 2013).
Results are given in words; binding and its absence hold for the method and conditions named. Some entries that bind do so weakly or less than the wild type. Values belong to the binder of their own block, whether it stands above or below them.

Sequences of proteins named here, by UniProt entry; tags and fusion partners are left off. A change or cut given only in a name is not applied to a line headed by its entry. Residues count along the entry.
UniProt P24394: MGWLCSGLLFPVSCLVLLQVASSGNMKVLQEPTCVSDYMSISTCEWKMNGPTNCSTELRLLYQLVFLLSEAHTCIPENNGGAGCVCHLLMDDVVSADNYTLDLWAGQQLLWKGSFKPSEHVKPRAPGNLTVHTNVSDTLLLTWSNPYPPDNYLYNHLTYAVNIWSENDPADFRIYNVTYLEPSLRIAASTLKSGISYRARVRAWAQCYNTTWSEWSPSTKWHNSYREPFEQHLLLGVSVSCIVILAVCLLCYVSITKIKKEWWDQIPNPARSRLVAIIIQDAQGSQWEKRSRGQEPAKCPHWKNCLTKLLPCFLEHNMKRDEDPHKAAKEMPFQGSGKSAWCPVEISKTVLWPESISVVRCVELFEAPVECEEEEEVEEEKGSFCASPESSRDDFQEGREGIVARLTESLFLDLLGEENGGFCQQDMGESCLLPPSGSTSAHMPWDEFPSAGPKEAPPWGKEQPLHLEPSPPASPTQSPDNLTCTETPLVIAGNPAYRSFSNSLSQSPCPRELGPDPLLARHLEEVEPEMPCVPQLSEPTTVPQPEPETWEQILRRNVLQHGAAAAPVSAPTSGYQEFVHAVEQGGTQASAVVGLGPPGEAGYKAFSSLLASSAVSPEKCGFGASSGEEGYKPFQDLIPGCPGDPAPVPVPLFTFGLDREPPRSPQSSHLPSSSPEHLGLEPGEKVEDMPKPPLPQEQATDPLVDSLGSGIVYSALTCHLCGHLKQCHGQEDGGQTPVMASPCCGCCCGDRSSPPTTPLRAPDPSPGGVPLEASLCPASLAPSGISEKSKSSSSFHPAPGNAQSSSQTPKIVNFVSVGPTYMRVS
IL-4 receptor on H226 and MDA-MB-231 cancer cells (human (endogenous in H226 and MDA-MB-231)): residues 26-825 of P24394
IL-4Rα (CD124): residues 26-232 of P24394

Experiments:
[1] = biological target: IL-4Rα (CD124) (UniProt P24394); assay: SPR; IL-4Rα immobilised by amine coupling on a carboxymethyl dextran chip (2000±400 RU); AP1 peptide 3.125 to 50 µM, [AP1-V12]6 125 nM to 1 µM, [V14]6 1 µM flowed for 3 min at 25 µL/min; 25°C; kinetic fits with Scrubber 2; both purified
[2] = biological target: IL-4 receptor on H226 and MDA-MB-231 cancer cells (human (endogenous in H226 and MDA-MB-231)) (UniProt P24394); assay: confocal microscopy of labelled ligand on cells; 10 µM Alexa 488-labelled polymer or peptide on H226, MDA-MB-231 and H460 cells, 1 h at 4°C, washed, fixed with 4% paraformaldehyde; only the binder purified
[3] = biological target: IL-4 receptor on H226 and MDA-MB-231 cancer cells (human (endogenous in H226 and MDA-MB-231)) (UniProt P24394); assay: flow cytometry on cells; competition: cells pre-treated with anti-IL-4R antibody (R&D Systems; 1, 5 and 10 µg) at 4°C for 1 h, then 10 µM Alexa 488-labelled [AP1-V12]6 for 1 h at 4°C; methods name H226 and MDA-MB-231 cells, the legend H226 cells; only the binder purified

binding [1]: no binding (tested: 1 µM)
B1: [V14]6 polymer, SGPG[(VGVPG)14]6WPC (protein)
chain: SGPGVGVPGVGVPGVGVPGVGVPGVGVPGVGVPGVGVPGVGVPGVGVPGVGVPGVGVPGVGVPGVGVPGVGVPGVGVPGVGVPGVGVPGVGVPGVGVPGVGVPGVGVPGVGVPGVGVPGVGVPGVGVPGVGVPGVGVPGVGVPGVGVPGVGVPGVGVPGVGVPGVGVPGVGVPGVGVPGVGVPGVGVPGVGVPGVGVPGVGVPGVGVPGVGVPGVGVPGVGVPGVGVPGVGVPGVGVPGVGVPGVGVPGVGVPGVGVPGVGVPGVGVPGVGVPGVGVPGVGVPGVGVPGVGVPGVGVPGVGVPGVGVPGVGVPGVGVPGVGVPGVGVPGVGVPGVGVPGVGVPGVGVPGVGVPGVGVPGVGVPGVGVPGVGVPGVGVPGVGVPGVGVPGVGVPGVGVPGVGVPGVGVPGVGVPGVGVPGWPC

binding [2]: binds
binding [3]: binds
B2: Alexa 488-labeled [AP1-V12]6 (designed binder)
chain: SGPGVGRKRLDRNGVGVPGVGVPGVGVPGVGVPGVGVPGVGVPGVGVPGVGVPGVGVPGVGVPGVGVPGVGVPGVGRKRLDRNGVGVPGVGVPGVGVPGVGVPGVGVPGVGVPGVGVPGVGVPGVGVPGVGVPGVGVPGVGVPGVGRKRLDRNGVGVPGVGVPGVGVPGVGVPGVGVPGVGVPGVGVPGVGVPGVGVPGVGVPGVGVPGVGVPGVGRKRLDRNGVGVPGVGVPGVGVPGVGVPGVGVPGVGVPGVGVPGVGVPGVGVPGVGVPGVGVPGVGVPGVGRKRLDRNGVGVPGVGVPGVGVPGVGVPGVGVPGVGVPGVGVPGVGVPGVGVPGVGVPGVGVPGVGVPGVGRKRLDRNGVGVPGVGVPGVGVPGVGVPGVGVPGVGVPGVGVPGVGVPGVGVPGVGVPGVGVPGVGVPGWPC
modifications: Alexa Fluor 488-C5 maleimide on the C-terminal Cys residue
notes: as m1; The labelled form of m1, used on cells (flow cytometry, confocal microscopy); also called Alexa-labeled [AP1-V12]6; targeted [AP1-V12]6 polymer; source: E. coli BL21 (DE3), purified (four rounds of inverse transition cycling), then labelled
